No constants are given. Whether binding was seen depends on the method and setting. Some entries that bind do so weakly or less than the wild type. Sequences can lack the tags named with a protein.
How the values were obtained:
Assay in all cases: two-hybrid
[1] = molecular target: T1, Dna2-N terminal domain (1-450 aa) fused to lexA-DBD (S. cerevisiae) (UniProt P38859)
T1 sequence: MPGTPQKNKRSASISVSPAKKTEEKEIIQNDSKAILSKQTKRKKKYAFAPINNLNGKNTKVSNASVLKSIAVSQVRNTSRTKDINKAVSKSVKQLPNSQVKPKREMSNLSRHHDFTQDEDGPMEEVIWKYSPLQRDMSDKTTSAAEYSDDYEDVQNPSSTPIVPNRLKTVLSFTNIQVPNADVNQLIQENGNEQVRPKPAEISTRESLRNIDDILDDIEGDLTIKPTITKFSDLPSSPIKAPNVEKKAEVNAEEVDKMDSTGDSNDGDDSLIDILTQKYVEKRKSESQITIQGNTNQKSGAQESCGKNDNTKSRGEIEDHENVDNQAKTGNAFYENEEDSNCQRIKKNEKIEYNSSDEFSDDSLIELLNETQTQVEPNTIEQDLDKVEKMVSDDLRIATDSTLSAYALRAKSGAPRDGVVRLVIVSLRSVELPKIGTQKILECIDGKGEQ

[2] = molecular target: T2, Mre11 fused to lexA-DBD (S. cerevisiae) (UniProt P32829)
T2 sequence: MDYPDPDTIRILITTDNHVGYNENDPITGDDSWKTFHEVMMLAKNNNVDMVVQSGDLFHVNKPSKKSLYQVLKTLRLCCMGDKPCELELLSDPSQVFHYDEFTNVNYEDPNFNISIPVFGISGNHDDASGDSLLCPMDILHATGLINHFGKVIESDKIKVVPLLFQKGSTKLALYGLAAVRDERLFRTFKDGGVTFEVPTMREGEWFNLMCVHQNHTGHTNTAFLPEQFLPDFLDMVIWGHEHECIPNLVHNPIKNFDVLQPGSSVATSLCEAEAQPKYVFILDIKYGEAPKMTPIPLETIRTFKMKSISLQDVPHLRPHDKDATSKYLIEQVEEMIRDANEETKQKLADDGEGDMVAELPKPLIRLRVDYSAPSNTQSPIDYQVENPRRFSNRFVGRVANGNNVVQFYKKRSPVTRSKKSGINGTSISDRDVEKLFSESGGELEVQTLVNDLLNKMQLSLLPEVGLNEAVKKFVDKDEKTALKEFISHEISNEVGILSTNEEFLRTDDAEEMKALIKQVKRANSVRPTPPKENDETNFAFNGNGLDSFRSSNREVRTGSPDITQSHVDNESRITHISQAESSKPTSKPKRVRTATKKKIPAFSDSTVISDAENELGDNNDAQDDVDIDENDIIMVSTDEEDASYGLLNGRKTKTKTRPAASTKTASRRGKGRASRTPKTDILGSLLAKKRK

[3] = molecular target: T3, Xrs2 fused to lexA-DBD (S. cerevisiae) (UniProt P33301)
T3 sequence: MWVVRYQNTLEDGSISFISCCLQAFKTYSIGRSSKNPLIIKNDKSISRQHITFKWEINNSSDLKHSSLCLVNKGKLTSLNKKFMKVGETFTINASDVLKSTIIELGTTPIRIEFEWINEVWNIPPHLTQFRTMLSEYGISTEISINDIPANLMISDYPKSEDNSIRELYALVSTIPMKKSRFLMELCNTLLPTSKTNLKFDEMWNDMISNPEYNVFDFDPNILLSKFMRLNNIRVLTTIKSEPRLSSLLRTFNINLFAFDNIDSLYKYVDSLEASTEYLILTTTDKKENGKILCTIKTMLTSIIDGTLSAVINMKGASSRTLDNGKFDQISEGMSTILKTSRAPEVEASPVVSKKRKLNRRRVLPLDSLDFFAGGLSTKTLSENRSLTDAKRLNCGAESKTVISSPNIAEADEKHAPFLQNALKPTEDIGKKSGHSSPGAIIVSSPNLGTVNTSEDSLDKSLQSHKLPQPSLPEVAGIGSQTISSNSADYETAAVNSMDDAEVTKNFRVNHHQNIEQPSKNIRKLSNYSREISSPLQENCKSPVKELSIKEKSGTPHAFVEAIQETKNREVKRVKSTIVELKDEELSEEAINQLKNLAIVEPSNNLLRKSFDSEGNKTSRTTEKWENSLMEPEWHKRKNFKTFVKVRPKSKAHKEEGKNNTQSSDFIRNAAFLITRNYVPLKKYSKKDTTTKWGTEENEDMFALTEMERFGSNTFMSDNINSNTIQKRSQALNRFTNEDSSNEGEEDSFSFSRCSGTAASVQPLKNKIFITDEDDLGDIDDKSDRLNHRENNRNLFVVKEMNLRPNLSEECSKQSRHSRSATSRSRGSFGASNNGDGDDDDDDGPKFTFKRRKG

binding [1]: binds
binding [2]: binds
binding [3]: binds
B1: Sae2 fused to HA-AD (protein, UniProt P46946 1-345)
chain: MVTGEENVYLKSSLSILKELSLDELLNVQYDVTTLIAKRVQALQNRNKCVLEEPNSKLAEILCHEKNAPQQSSQTSAGPGEQDSEDFILTQFDEDIKKESAEVHYRNENKHTVQLPLVTMPPNRHKRKISEFSSPLNGLNNLSDLEDCSDTVIHEKDNDKENKTRKLLGIELENPESTSPNLYKNVKDNFLFDFNTNPLTKRAWILEDFRPNEDIAPVKRGRRKLERFYAQVGKPEDSKHRSLSVVIESQNSDYEFAFDNLRNRSKSPPGFGRLDFPSTQEGNEDKKKSQEIIRRKTKYRFLMASNNKIPPYEREYVFKREQLNQIVDDGCFFWSDKLLQIYARC

— doi:10.1101/2021.04.10.439283
